Results: article PMC5065529, “Wnt Signalosome Assembly by DEP Domain Swapping of Dishevelled” (Molecular Cell, 2016)
No constants are given. Whether binding was seen depends on the method and setting. Some binding calls cover weakened binding; strength is not graded here. Sequences can lack the tags named with a protein.

Protein sequences, listed by entry. Tags and fused reporters are not part of them. Lines headed by an entry give the natural chain unless they say otherwise; changes in a name come on top. Chains listed by the source or under a name are the forms on record and can include a tag or linker. Residues count along the entry.
SNAP-FZD5 (Frizzled 5), wild type (Q13467, residues 27-585): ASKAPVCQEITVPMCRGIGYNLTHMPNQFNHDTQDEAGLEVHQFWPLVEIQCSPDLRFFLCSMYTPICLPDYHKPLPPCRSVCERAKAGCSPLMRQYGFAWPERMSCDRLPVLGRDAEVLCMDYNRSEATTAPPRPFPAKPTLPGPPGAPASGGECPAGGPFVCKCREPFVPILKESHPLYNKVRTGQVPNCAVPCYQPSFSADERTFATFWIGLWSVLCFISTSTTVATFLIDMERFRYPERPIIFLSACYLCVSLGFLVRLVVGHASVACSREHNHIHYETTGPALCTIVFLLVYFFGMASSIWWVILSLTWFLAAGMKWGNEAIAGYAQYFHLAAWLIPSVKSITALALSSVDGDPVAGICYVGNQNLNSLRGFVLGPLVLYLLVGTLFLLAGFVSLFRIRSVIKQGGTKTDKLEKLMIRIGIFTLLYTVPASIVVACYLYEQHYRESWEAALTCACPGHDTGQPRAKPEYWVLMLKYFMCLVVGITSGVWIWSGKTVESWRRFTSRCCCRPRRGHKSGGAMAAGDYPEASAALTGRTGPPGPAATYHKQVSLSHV
SNAP-FZD5 L443A (Q13467, form named): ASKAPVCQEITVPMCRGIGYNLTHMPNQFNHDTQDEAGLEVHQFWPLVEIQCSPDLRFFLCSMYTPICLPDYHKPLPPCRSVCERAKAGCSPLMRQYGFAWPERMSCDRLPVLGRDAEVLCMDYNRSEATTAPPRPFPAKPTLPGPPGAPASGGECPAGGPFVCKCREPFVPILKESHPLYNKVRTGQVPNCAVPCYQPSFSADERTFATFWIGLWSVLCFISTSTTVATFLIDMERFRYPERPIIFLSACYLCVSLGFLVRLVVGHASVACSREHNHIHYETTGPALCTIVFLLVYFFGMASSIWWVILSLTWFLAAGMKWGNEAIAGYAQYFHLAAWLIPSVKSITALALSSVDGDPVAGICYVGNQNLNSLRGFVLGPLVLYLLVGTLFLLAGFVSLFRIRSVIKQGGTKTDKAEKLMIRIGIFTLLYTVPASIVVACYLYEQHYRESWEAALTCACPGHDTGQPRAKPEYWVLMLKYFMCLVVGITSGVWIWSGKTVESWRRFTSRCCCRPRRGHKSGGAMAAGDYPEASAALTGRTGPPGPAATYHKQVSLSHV
SNAP-FZD5 L446A (Q13467, form named): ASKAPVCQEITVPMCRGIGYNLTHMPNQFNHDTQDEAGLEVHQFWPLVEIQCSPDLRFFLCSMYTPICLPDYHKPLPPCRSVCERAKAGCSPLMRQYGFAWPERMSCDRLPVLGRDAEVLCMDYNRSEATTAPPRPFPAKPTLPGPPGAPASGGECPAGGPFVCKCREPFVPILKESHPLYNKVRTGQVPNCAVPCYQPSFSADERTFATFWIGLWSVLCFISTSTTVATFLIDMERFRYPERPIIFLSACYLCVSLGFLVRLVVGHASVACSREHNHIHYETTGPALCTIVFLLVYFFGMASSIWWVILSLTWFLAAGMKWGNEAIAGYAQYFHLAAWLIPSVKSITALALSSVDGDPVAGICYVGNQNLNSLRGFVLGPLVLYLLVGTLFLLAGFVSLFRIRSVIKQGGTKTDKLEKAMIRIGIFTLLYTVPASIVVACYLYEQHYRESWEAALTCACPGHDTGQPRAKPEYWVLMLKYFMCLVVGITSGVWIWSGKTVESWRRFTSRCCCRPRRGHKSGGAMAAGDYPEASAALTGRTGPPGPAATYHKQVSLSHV

B1: DEP_(414–507)-GFP, minimal DEP domain of DVL2 (domain or fragment, UniProt O14641 414-507)
chain: GRGLSVHTDMASVTKAMAAPESGLEVRDRMWLKITIPNAFLGSDVVDWLYHHVEGFPERREARKYASGLLKAGLIRHTVNKITFSEQCYYVFGD
B2: PDZ_(248–353)-GFP, minimal PDZ domain of DVL2 (domain or fragment, UniProt O14641 248-353)
chain: ERTSSFSSVTDSTMSLNIITVTLNMEKYNFLGISIVGQSNERGDGGIYIGSIMKGGAVAADGRIEPGDMLLQVNDMNFENMSNDDAVRVLRDIVHKPGPIVLTVAK

Experiments:
Experiment in all cases: FZD-dependent membrane translocation (plasma membrane recruitment) assay, confocal microscopy; GFP-tagged DVL2, DEP or PDZ co-expressed with SNAP-FZD5 (WT or mutant) in transfected cells (HeLa in the legends, HEK293T in the text), fixed and stained with α-SNAP; with or without Wnt3a-conditioned medium for 30 min
[1] = biological target: SNAP-FZD5 (Frizzled 5), wild type (human) (UniProt Q13467)
SNAP-FZD5 L443A (human) = SNAP-FZD5 L443A (human) (UniProt Q13467)
SNAP-FZD5 L446A (human) = SNAP-FZD5 L446A (human) (UniProt Q13467)

| Binder | binding [1] | binding (SNAP-FZD5 L443A (human)) | binding (SNAP-FZD5 L446A (human)) |
| --- | --- | --- | --- |
| B1 | binds | no binding | no binding |
| B2 | no binding | – | – |
